Among the data in publication PMC12164954 are binding values, retold here.

Sequences of proteins named here, by UniProt entry; tags and fusion partners are left off.
UniProt Q0WNJ6: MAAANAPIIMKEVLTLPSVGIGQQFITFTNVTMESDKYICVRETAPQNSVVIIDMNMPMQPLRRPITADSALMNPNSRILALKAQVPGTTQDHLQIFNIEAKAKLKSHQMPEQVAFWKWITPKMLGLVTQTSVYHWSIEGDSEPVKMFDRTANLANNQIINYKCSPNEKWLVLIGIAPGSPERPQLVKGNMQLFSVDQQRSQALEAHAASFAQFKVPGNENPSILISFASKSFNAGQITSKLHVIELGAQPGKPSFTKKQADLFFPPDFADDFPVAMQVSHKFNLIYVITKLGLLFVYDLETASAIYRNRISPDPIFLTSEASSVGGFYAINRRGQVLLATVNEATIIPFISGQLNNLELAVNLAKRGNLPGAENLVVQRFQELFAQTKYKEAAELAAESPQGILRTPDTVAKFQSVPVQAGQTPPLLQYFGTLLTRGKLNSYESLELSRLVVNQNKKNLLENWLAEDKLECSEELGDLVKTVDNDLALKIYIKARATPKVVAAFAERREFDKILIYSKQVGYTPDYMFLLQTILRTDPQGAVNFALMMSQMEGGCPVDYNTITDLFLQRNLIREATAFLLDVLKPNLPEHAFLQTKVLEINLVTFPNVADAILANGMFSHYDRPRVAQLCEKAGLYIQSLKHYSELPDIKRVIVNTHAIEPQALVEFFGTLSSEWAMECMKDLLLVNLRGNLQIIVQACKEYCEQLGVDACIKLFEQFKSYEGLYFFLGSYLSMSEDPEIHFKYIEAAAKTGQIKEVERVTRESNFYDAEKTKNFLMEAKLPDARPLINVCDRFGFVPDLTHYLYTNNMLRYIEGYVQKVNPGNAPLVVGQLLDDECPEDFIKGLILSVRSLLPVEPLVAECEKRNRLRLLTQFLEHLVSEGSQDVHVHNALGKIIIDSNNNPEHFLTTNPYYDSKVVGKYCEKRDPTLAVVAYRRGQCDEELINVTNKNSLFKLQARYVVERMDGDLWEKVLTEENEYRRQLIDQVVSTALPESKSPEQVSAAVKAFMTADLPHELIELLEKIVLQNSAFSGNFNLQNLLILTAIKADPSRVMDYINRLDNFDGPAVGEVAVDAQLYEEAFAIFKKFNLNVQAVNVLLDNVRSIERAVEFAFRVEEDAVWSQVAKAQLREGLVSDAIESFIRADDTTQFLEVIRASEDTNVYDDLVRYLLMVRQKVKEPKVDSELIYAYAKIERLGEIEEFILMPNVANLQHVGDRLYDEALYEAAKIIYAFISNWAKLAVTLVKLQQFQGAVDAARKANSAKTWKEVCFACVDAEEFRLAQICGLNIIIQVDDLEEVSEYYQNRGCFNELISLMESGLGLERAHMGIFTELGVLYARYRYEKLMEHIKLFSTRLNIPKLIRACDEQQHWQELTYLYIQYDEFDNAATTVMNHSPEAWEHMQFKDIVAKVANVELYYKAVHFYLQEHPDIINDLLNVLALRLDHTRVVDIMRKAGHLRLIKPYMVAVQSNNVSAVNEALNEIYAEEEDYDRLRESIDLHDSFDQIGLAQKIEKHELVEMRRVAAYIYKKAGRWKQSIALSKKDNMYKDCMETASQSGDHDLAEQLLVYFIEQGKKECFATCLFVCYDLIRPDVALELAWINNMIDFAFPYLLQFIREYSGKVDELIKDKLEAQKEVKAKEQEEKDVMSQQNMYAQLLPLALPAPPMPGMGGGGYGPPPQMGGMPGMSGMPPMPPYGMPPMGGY

For the assay, the target named is CHC1 (Arabidopsis thaliana) (UniProt Q0WNJ6). Kind of assay: two-hybrid; SnRK2s and ADA2b fused with activation domain (AD, pGADT7), CLC2 fused with binding domain (BD, pGBKT7); growth on SD-L-W-H medium containing 30 mM 3-AT.

Results are given in words; binding and its absence hold for the method and conditions named. Where a sequence is shown, tags or fusion partners need not be part of it.

B1: SnRK2.2 fused with activation domain (AD) (enzyme, UniProt Q39192 1-362)
chain: MDPATNSPIMPIDLPIMHDSDRYDFVKDIGSGNFGVARLMTDRVTKELVAVKYIERGEKIDENVQREIINHRSLRHPNIVRFKEVILTPSHLAIVMEYAAGGELYERICNAGRFSEDEARFFFQQLISGVSYCHAMQICHRDLKLENTLLDGSPAPRLKICDFGYSKSSVLHSQPKSTVGTPAYIAPEILLRQEYDGKLADVWSCGVTLYVMLVGAYPFEDPQEPRDYRKTIQRILSVTYSIPEDLHLSPECRHLISRIFVADPATRITIPEITSDKWFLKNLPGDLMDENRMGSQFQEPEQPMQSLDTIMQIISEATIPTVRNRCLDDFMADNLDLDDDMDDFDSESEIDVDSSGEIVYAL
As for B1, the binding entry is “no binding”.

B2: SnRK2.3 fused with activation domain (AD) (enzyme, UniProt Q39193 1-361)
chain: MDRAPVTTGPLDMPIMHDSDRYDFVKDIGSGNFGVARLMRDKLTKELVAVKYIERGDKIDENVQREIINHRSLRHPNIVRFKEVILTPTHLAIIMEYASGGELYERICNAGRFSEDEARFFFQQLLSGVSYCHSMQICHRDLKLENTLLDGSPAPRLKICDFGYSKSSVLHSQPKSTVGTPAYIAPEVLLRQEYDGKIADVWSCGVTLYVMLVGAYPFEDPEEPRDYRKTIQRILSVKYSIPDDIRISPECCHLISRIFVADPATRISIPEIKTHSWFLKNLPADLMNESNTGSQFQEPEQPMQSLDTIMQIISEATIPAVRNRCLDDFMTDNLDLDDDMDDFDSESEIDIDSSGEIVYAL
In the case of B2, the binding entry is recorded as “no binding”.
